Measured values: PubChem BioAssay AID504444 (National Center for Advancing Translational Sciences (NCATS), 2011)
Values joined by “and” are separate entries in the source; they are usually repeats but may differ in a detail not shown here. Identical values can stand only once. Screen size: about 360,000 compounds; about 7,500 (2.1%) were called active. The inconclusive results got no clear call from the source; some entries with a clear call stand among them for comparison. The call rests on the fitted dose curve; in most records, active means well fitted inhibition curve with a large enough effect; inconclusive means small, poorly fitted or top-dose-only effect, or effect the other way; inactive means flat fitted curve, though single readings scatter. Potencies of inconclusive entries are doubtful fits and often do not repeat. Where a structure was tested more than once in an assay, its records may differ in their call.

Test: Nrf2 qHTS screen for inhibitors; further: nearly all actives have a fitted effect of over 60% in size
Conditions: A549 ARE-Fluc reporter, luciferase luminescence, 18-24 h; series mostly up to 46 µM
In short: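 A549 ARE_Fluc cells (5000/well, 5% FBS OPTI-MEM) pre-incubated 2 h, then treated with compounds 18-24 h at 37C/5% CO2 in concentration-response. CellTiter-Fluor viability read first; BugLite luciferase luminescence after 15 min at room temperature gives Nrf2 activity.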
Potency means the concentration at half of the fitted maximal effect.

Row | Compound | Potency
1 | Fc1cccc2sc(N3CCCC3)nc12 | inconclusive: 23.1 µM [activator, partial curve]
2 | CCOc1ccc(N/C=C/C(=O)c2ccccc2)c([N+](=O)[O-])c1 | inconclusive: 0.0651 µM [activator, full curve, poor fit]
3 | Cc1cccc(N(C)S(=O)(=O)c2cc3[nH]c(=O)c(=O)[nH]c3cc2C)c1 | inconclusive: 0.58 µM [activator, full curve, poor fit]
4 | CCc1ccc(NC(=O)C2=CC(c3cccs3)=NS(=O)(=O)N2C)cc1 | inactive and active: 16.4 µM
5 | O=C(c1ccc(F)cc1)c1c[nH]c(C(=O)NCc2cccnc2)c1 | inconclusive: 16.4 µM [falling, partial curve, poor fit]
6 | COc1cc(NS(=O)(=O)c2c(C)nc3sc(C)c(C)n3c2=O)cc(OC)c1 | inactive
7 | CCOC(=O)N1CCC(N2CCN(S(=O)(=O)c3ccc4ccccc4c3)CC2)CC1 | inconclusive: 14.6 µM [falling, single point]
8 | CC(C)Nc1nc(NC(C)C)nc(N(C)C#N)n1 | inconclusive: 16.4 µM [falling, partial curve, poor fit]
9 | Cc1cccc(NC(=S)NNC(=O)c2cccc([N+](=O)[O-])c2)c1 | inconclusive: 25.9 µM [activator, partial curve, poor fit]
10 | CCOc1ccccc1CNC(=O)Cn1nc(N2CCN(c3ccccc3)CC2)ccc1=O | inconclusive: 14.6 µM [falling, single point]
11 | CC(C)CNC(=S)N(CCCO)Cc1cc2cc3c(cc2[nH]c1=O)OCCO3 | inconclusive: 10.3 µM [falling, partial curve, poor fit]
12 | Cc1onc(-c2ccccc2Cl)c1C(=O)Nc1sc2c(c1C(N)=O)CCC(C)C2 (stereo not given) | inconclusive: 29.1 µM [falling, single point]
13 | COc1ccc(-c2ccc(OC)c(C3C4C=CCCC4(C)C(=O)N3Cc3ccccc3)c2)cc1OC (stereo not given) | inconclusive: 18.4 µM [falling, single point]
14 | c1ccc(CCc2nn3c(-c4ccncc4)nnc3s2)cc1 | inconclusive: 14.6 µM [falling, partial curve, poor fit]
15 | CCOC(=O)CCc1c(C)nc2cc(-c3ccc(Cl)cc3)[nH]n2c1=O | inactive
16 | CN(C)S(=O)(=O)N1CCN(S(=O)(=O)c2ccc3ccccc3c2)CC1 | inconclusive: 9.2 µM [falling, partial curve, poor fit]
17 | COc1ccccc1CNC(=O)COCc1cc(-c2ccc3c(c2)OCO3)on1 | inactive
18 | O=C(Nc1ccc2c(c1)OCO2)c1ccc(Br)c(S(=O)(=O)N2CCCC2)c1 | inconclusive: 16.4 µM [falling, single point]
19 | O=C(Nc1ccc(C(O)(C(F)(F)F)C(F)(F)F)cc1)c1ccc(Cl)c([N+](=O)[O-])c1 | inconclusive: 6.51 µM [activator, single point]
20 | COc1ccc(OCCSc2nc(N)cc(N)n2)cc1 | inconclusive: 0.411 µM [activator, single point]
21 | Clc1ccc(-c2cn3cc(Cl)ccc3n2)cc1 | inconclusive: 0.517 µM [activator, full curve, poor fit]
22 | Cc1nnc(SCc2nc3ccccc3s2)n1-c1ccccc1 | inconclusive: 5.8 µM [activator, full curve]

Row | Compound | Potency
23 | Cc1c(Cl)c([N+](=O)[O-])nn1Cc1ccc(C(=O)NN)o1 | inconclusive: 32.6 µM [falling, partial curve, poor fit]
24 | O=C(Nc1ccc(N2CCCC2)cc1)c1ccc2ccccc2c1 | inconclusive: 2.91 µM [activator, single point]
25 | CCOc1ccc(-n2c(O)c(/C=N/NC(=O)C3COc4ccccc4O3)c3ccccc3c2=O)cc1 (stereo not given) | inconclusive: 20.6 µM [falling, single point]
26 | CCN1CCN(CNC(=O)c2cnccn2)CC1 | inactive
27 | COc1ccc(-c2csc(NC(=O)COC(=O)c3ccco3)n2)cc1 | inconclusive: 4.61 µM [activator, partial curve, poor fit]
28 | C/C(=N\NC(=S)NCCc1ccccc1)c1cccc(Br)c1 | inconclusive: 32.6 µM [falling, single point]
29 | CCOc1ccc(-n2ccnc(SCC(=O)Nc3ccc(OC)cc3OC)c2=O)cc1 | inconclusive: 23.1 µM [falling, partial curve]
30 | CC(=O)NC1=NN(C(C)=O)C(C)(c2ccc(Cl)s2)S1 (stereo not given) | inconclusive: 0.58 µM [falling, full curve, poor fit]
31 | CN(C(=O)c1cccc(NC(=O)Cc2cccc(NC(=O)C3CCCN(C(=O)C4CCCC4)C3)c2)c1)C1CC1 (stereo not given) | inconclusive: 11.6 µM [falling, partial curve, poor fit]
32 | O=C(NCc1ccccn1)c1ccc(OC2CCN(Cc3ccc(Cl)s3)CC2)cc1 | inconclusive: 20.6 µM [falling, single point]
33 | O=C(NCCc1ccccc1)c1ccc(Cl)cc1[N+](=O)[O-] | inconclusive: 3.66 µM [activator, partial curve, poor fit]
34 | CCN(CC)S(=O)(=O)c1cc(C(=O)Nc2ccccn2)ccc1C | inconclusive: 2.59 µM [activator, partial curve]
35 | CN(C)C(=S)N=c1ssc(=S)n1Cc1ccccc1 | inactive
36 | CCOc1ccccc1NC(=O)C1CCCN1S(=O)(=O)c1ccc2nc(-c3ccccc3)[nH]c2c1 (stereo not given) | inconclusive: 29.1 µM [falling, single point]
37 | COc1ccc(CCNC(=O)Cn2cc(S(=O)(=O)Cc3ccc(F)cc3)c3ccccc32)cc1OC | inactive
38 | Cc1cn([C@@H](CCCCNC(=O)OC(C)(C)C)C(=O)NCCCCCCCCCCC(=O)N2CCN(C(=O)OC(C)(C)C)CC2)nn1 | active: 10.3 µM
39 | COc1ccc(-c2cc(C3CC3)nc(SCC(=O)c3cccs3)c2C#N)cc1 | inconclusive: 32.6 µM [falling, single point]
40 | COc1cc(/C=N/N=C(/N)c2nonc2N)cc(Br)c1OCc1ccccc1C | inconclusive: 18.4 µM [falling, single point]
41 | Cn1c(-c2ccsc2)c(-c2cccs2)c2cc(Br)ccc21 | inconclusive: 23.1 µM [activator, partial curve]
42 | COc1ccc(-c2c[n+]3c(n2-c2ccccc2)CCCCC3)cc1 | inconclusive: 9.2 µM [falling, partial curve]
43 | O=C(COc1ccc(Cl)cc1)NCCSCc1cccc(Cl)c1 | inconclusive: 20.6 µM [activator, single point]
44 | Cn1nnnc1SCCCNCc1cccc(OCc2ccccc2)c1 | inactive

Row | Compound | Potency
45 | N#C/C(=C\c1ccc(C#N)cc1)C(=O)c1ccccc1 | inconclusive: 0.0517 µM [falling, full curve, poor fit]
46 | CC1CCN(S(=O)(=O)c2ccc3c(c2)N(CC(=O)NCC(C)c2ccccc2)C(=O)CO3)CC1 (stereo not given) | inactive
47 | COc1ccc(C2CC(c3ccccc3)=NN2c2ccc(/C=N/NC(=O)c3ccncc3)cc2)cc1 (stereo not given) | inconclusive: 29.1 µM [falling, single point]
48 | O=C(NCc1ccco1)c1ccc(Cn2c(SCc3ccccc3F)nc3cccnc32)cc1 | inconclusive: 2.06 µM [activator, partial curve, poor fit]
49 | CC(C)Nc1nc(NC(C)C)nc(N(C#N)CCOc2ccc(Cl)cc2Cl)n1 | inconclusive: 23.1 µM [falling, single point]
50 | O=C(CSc1ncccc1C(=O)Oc1ccccc1Cl)Nc1ccccc1Cl | inconclusive: 20.6 µM [activator, partial curve, poor fit]
51 | O=S1(=O)c2cccc3cccc(c23)N1Cc1nnc(-c2ccccc2Br)o1 | active: 20.6 µM
52 | Cc1cc(Cl)ccc1OCC(=O)N1CC(C)CC(C)C1 (stereo not given) | inconclusive: 4.61 µM [activator, single point]
53 | CCC(C)Sc1ccc([C@H]2N[C@@](Cc3ccccc3)(C(=O)OC)[C@H]3C(=O)N(CC)C(=O)[C@@H]23)cc1 (stereo not given in full) | inconclusive: 18.4 µM [falling, single point]
54 | CCOC(=O)c1cc2cc(OC)ccc2nc1C | inactive
55 | Cc1nn(Cc2ccccc2Cl)c(C)c1C(=O)Nc1nnc(C2CC2)s1 | inconclusive: 2 µM [activator, partial curve, poor fit]
56 | CC(=O)/C(C#N)=C1\NC(=O)C(Cc2ccccc2)S1 (stereo not given) | inconclusive: 5.17 µM [activator, full curve]
57 | CCOc1ccc(NC(=O)CC2C(=O)N(c3ccccc3)C(=S)N2Cc2ccccn2)cc1 (stereo not given) | inconclusive: 23.1 µM [falling, single point]
58 | CCOc1ccccc1N1C(=O)c2ccccc2N/C1=C\N1CCN(C(=O)c2ccco2)CC1 | inactive
59 | CCOc1ccc2ncc3c(-c4cccc(OC)c4)nn(-c4ccccc4)c3c2c1 | inactive
60 | Cc1nc2nc(C)c(CCC(=O)NCc3ccccc3)c(C)n2n1 | inactive
61 | Cc1ccc2occ(CC(=O)Nc3ccc(S(=O)(=O)N4CCC(C)CC4)cc3)c2c1 | active: 25.9 µM
62 | COc1ccc2occ(C(C)=O)c2c1 | inconclusive: 0.517 µM [falling, full curve, poor fit]
63 | O=C(Nc1ccc(S(=O)(=O)N2CCc3ccccc32)cc1)c1ccco1 | active: 23.1 µM
64 | COc1ccc(Cl)cc1NC(=O)c1ccccc1C | inconclusive: 8.2 µM [activator, partial curve, poor fit]
65 | CCCCn1c(N)c(N(CCC(C)C)C(=O)COC(=O)c2ccc([N+](=O)[O-])s2)c(=O)[nH]c1=O | active: 23.1 µM
